This passage reports binding results from US20250122300A1 (INSERM INSTITUT NATIONAL DE LA SANT ET DE LA RECHERCHE M …, published 2025).

In test [1] the target is macaque CD45RC (cynomolgus macaque). Nature of the test: flow cytometry on macaque blood cells (figure legend).
For test [2] the target is unchanged. Nature of the test: flow cytometry on cynomolgus macaque PBMC, 10 µg/ml.

Positions count from the first letter of the chain named. No constants are given. Whether binding was seen depends on the method and setting. Binding calls can cover weak binding; strength is not graded here.

B1: Anti-45RC Variant A (antibody, human IgG1, kappa, V domains shown)
VH: QVQLVQSGAEVKKPGASVKVSCKASGYTFTNYYIGWVRQAPGQGLEWIGDIFPGGDYANSNEKFKGRVTLTADTSISTAYMELSRLRSDDTVVYYCVRRNFDYWGQGTLVTVSS
VL: DIQLTQSPSFLSASVGDRVTITCSASSSVSYMHWFQQKPGKAPKLWIYNTSNLPSGVPSRFSGSGSGTEYTLTISSLQPEDFATYYCQQRSSYPLTFGGGTKVEIKR
Turning to B1, the binding entry in test [1] and in test [2] was “binds” each time.

B2: Anti-45RC Variant A1 (antibody, human IgG1, kappa, V domains shown)
VH: B1 VH with A58T, S60Y, N61A, K65Q
VL: B1 VL with S24R, F35Y
B2: the binding result in test [1] and in test [2] was “binds” throughout.

B3: Anti-45RC Variant A3 (antibody, human IgG1, kappa, V domains shown)
VH: B1 VH with D56G, A58T, S60Y, N61A, K65Q
VL: B1 VL with S24R, F35Y
Take B3: the binding entry in test [1] and in test [2] was “binds” each time.

B4: ABIS-45RC (antibody, mouse IgG1, kappa, V domains shown)
VH: QVQLQQSGAELVRPGTSVKMSCKAAGYTFTNYYIGWVKQRPGHGLEWIGDIFPGGDYANSNEKFKGKATLTADTSSSTAYMQLSSLTSEDSAIYYCVRRNFDYWGQGTTLTVSS
VL: QIVLTQSPTIMSASPGEKVTITCSASSSVSYMHWFQQKTGTSPRLWIYNTSNLPSGVPARFSGSGSGTSYSLTISRMEAEDAATYYCQQRSSYPLTFGAGTKLELKR
notes: the variable domains are the same; also called murine ABIS-45RC; murine anti-hCD45RC antibody of the invention
B4: the binding result in test [1] and in test [2] was “binds” throughout.
